# From article PMC5014551
# Amino acid sequences for entries named in this document (tags omitted). Residues count along the entry.
# UniProt P39522, residues 21-585: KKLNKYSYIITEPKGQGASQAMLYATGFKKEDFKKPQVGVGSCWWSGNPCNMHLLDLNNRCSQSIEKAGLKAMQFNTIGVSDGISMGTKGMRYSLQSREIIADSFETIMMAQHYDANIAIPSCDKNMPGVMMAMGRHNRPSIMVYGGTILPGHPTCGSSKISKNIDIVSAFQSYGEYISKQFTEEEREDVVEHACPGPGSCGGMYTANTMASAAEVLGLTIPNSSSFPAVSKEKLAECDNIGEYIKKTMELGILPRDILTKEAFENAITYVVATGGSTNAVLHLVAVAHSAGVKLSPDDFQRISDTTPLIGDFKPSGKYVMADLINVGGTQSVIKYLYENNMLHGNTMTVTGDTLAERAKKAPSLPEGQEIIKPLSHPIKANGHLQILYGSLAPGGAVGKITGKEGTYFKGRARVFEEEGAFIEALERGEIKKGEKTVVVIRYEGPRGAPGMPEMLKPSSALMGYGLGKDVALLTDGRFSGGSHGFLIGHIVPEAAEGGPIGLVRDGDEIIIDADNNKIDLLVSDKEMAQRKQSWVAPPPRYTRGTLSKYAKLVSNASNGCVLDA
# These are yes or no findings as the source states them, for the method shown. In cells and extracts the contact can be indirect. A yes stands for co-enrichment or nearness to the bait. Other partners may have been found.
# Biological target: T1, Bol3-Strep (S. cerevisiae) (UniProt P39724)
# T1 sequence: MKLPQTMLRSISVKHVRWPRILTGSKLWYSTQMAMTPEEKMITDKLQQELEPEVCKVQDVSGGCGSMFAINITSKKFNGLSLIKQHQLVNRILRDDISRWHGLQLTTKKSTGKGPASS
# Test: affinity purification with mass spectrometry; Strep-tagged bait from low-copy plasmids in the corresponding single deletion mutants; Strep-Tactin purification from solubilized mitochondria; eluates analysed on a Q-Exactive; multiple independent analyses
substance,measurement,value
Nfu1 (endogenous),binding,binds weakly
dihydroxyacid dehydratase (Ilv3) (from UniProt P39522 21-585) (enzyme),binding,binds
